# Data published in the supplement of paper PMC8728848.
# This is one part of the list.
# Assays:
# Assay in all cases: glycan array binding signal (z-score within array); higher = stronger binding
# Settings in all cases: glycan notation: IUPAC condensed, linker removed
# [1] = target: Gal(b1-3)GlcNAc(b1-3)Gal(b1-4)GlcNAc(b1-2)Man(a1-3)[Gal(b1-3)GlcNAc(b1-3)Gal(b1-4)GlcNAc(b1-2)Man(a1-6)]Man(b1-4)GlcNAc(b1-4)GlcNAc
# Outline: (§1)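 The Consortium for Functional Glycomics database supplied 3228 glycan arrays, of which those lacking an available protein sequence were dropped. The binding signal, a within-array Z-score, was averaged across arrays of the same protein sequence and across linkers. Negative scores can be read as non-binding.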
# [2] = target: Gal(b1-3)GlcNAc(b1-3)Gal(b1-4)GlcNAc(b1-2)[Gal(b1-3)GlcNAc(b1-3)Gal(b1-4)GlcNAc(b1-6)]Man(a1-6)[Gal(b1-3)GlcNAc(b1-3)Gal(b1-4)GlcNAc(b1-2)Man(a1-3)]Man(b1-4)GlcNAc(b1-4)[Fuc(a1-6)]GlcNAc
# Outline: as §1
# [3] = target: Gal(b1-3)GlcNAc(b1-3)Gal(b1-4)GlcNAc(b1-3)Gal(b1-4)GlcNAc(b1-2)[Gal(b1-3)GlcNAc(b1-3)Gal(b1-4)GlcNAc(b1-3)Gal(b1-4)GlcNAc(b1-6)]Man(a1-6)[Gal(b1-3)GlcNAc(b1-3)Gal(b1-4)GlcNAc(b1-3)Gal(b1-4)GlcNAc(b1-2)Man(a1-3)]Man(b1-4)GlcNAc(b1-4)[Fuc(a1-6)]GlcNAc
# Outline: as §1
# [4] = target: Gal(b1-3)GlcNAc(b1-3)Gal(b1-4)GlcNAc(b1-6)[Gal(b1-3)GlcNAc(b1-3)]Gal(b1-4)Glc
# Outline: as §1
# [5] = target: Gal(b1-3)GlcNAc(b1-3)Gal(b1-4)[Fuc(a1-3)]GlcNAc
# Outline: as §1
# [6] = target: Gal(b1-3)GlcNAc(b1-3)Gal(b1-4)[Fuc(a1-3)]GlcNAc(b1-6)[Gal(b1-3)GlcNAc(b1-3)]Gal(b1-4)Glc
# Outline: as §1
# [7] = target: Gal(b1-3)GlcNAc(b1-3)GalNAc
# Outline: as §1
# [8] = target: Gal(b1-3)GlcNAc(b1-6)Gal(b1-4)GlcNAc
# Outline: as §1
# [9] = target: Gal(b1-3)GlcNAc(b1-6)GalNAc
# Outline: as §1
# [10] = target: Gal(b1-3)GlcNAc(b1-6)[Gal(b1-3)]GalNAc
# Outline: as §1
# [11] = target: Gal(b1-3)GlcNAc6S
# Outline: as §1
# [12] = target: Gal(b1-3)[Fuc(a1-4)]GlcNAc
# Outline: as §1
# [13] = target: Gal(b1-3)[Fuc(a1-4)]GlcNAc(b1-2)Man
# Outline: as §1
# [14] = target: Gal(b1-3)[Fuc(a1-4)]GlcNAc(b1-2)Man(a1-3)[Gal(b1-3)[Fuc(a1-4)]GlcNAc(b1-2)Man(a1-6)]Man(b1-4)GlcNAc(b1-4)[Fuc(a1-6)]GlcNAc
# Outline: as §1
# [15] = target: Gal(b1-3)[Fuc(a1-4)]GlcNAc(b1-3)Gal(b1-3)[Fuc(a1-4)]GlcNAc
# Outline: as §1
# [16] = target: Gal(b1-3)[Fuc(a1-4)]GlcNAc(b1-3)Gal(b1-4)[Fuc(a1-3)]GlcNAc
# Outline: as §1
# [17] = target: Gal(b1-3)[Fuc(a1-4)]GlcNAc(b1-6)GalNAc
# Outline: as §1
# [18] = target: Gal(b1-3)[GlcNAc(b1-6)]GalNAc
# Outline: as §1
# [19] = target: Gal(b1-3)[Neu5Ac(a2-6)]GalNAc
# Outline: as §1
# [20] = target: Gal(b1-3)[Neu5Ac(a2-6)]GlcNAc(b1-4)Gal(b1-4)Glc
# Outline: as §1
# [21] = target: Gal(b1-3)[Neu5Ac(b2-6)]GalNAc
# Outline: as §1
# [22] = target: Gal(b1-4)Gal
# Outline: as §1
# [23] = target: Gal(b1-4)GalNAc(a1-3)[Fuc(a1-2)]Gal(b1-4)GlcNAc
# Outline: as §1
# [24] = target: Gal(b1-4)GalNAc(b1-3)[Fuc(a1-2)]Gal(b1-4)GlcNAc
# Outline: as §1
# [25] = target: Gal(b1-4)Glc
# Outline: as §1
# [26] = target: Gal(b1-4)Glc6S
# Outline: as §1
# [27] = target: Gal(b1-4)GlcNAc
# Outline: as §1
# [28] = target: Gal(b1-4)GlcNAc(a1-6)Gal(b1-4)GlcNAc
# Outline: as §1
# [29] = target: Gal(b1-4)GlcNAc(b1-2)Man
# Outline: as §1
# [30] = target: Gal(b1-4)GlcNAc(b1-2)Man(a1-3)Man(b1-4)GlcNAc(b1-4)GlcNAc
# Outline: as §1
# [31] = target: Gal(b1-4)GlcNAc(b1-2)Man(a1-3)[Gal(b1-4)GlcNAc(b1-2)Man(a1-6)]Man(b1-4)GlcNAc(b1-4)GlcNAc
# Outline: as §1
# [32] = target: Gal(b1-4)GlcNAc(b1-2)Man(a1-3)[Gal(b1-4)GlcNAc(b1-2)Man(a1-6)]Man(b1-4)GlcNAc(b1-4)[Fuc(a1-6)]GlcNAc
# Outline: as §1
# [33] = target: Gal(b1-4)GlcNAc(b1-2)Man(a1-3)[Gal(b1-4)GlcNAc(b1-2)Man(a1-6)][Gal(b1-4)GlcNAc(b1-4)]Man(b1-4)GlcNAc(b1-4)[Fuc(a1-6)]GlcNAc
# Outline: as §1
# [34] = target: Gal(b1-4)GlcNAc(b1-2)Man(a1-3)[Gal(b1-4)GlcNAc(b1-2)Man(a1-6)][GlcNAc(b1-4)]Man(b1-4)GlcNAc(b1-4)[Fuc(a1-6)]GlcNAc
# Outline: as §1
# [35] = target: Gal(b1-4)GlcNAc(b1-2)Man(a1-3)[GlcNAc(b1-2)Man(a1-6)]Man(b1-4)GlcNAc(b1-4)GlcNAc
# Outline: as §1
# [36] = target: Gal(b1-4)GlcNAc(b1-2)Man(a1-3)[GlcNAc(b1-4)][Gal(b1-4)GlcNAc(b1-2)Man(a1-6)]Man(b1-4)GlcNAc(b1-4)GlcNAc
# Outline: as §1
# [37] = target: Gal(b1-4)GlcNAc(b1-2)Man(a1-3)[Man(a1-6)]Man(b1-4)GlcNAc(b1-4)GlcNAc
# Outline: as §1
# [38] = target: Gal(b1-4)GlcNAc(b1-2)Man(a1-6)Man(b1-4)GlcNAc(b1-4)GlcNAc
# Outline: as §1
binder,measurement,setting,value
"AT1G77380(17) (Arabidopsis thaliana), Q39134 (protein) MVQNHQTVLAVDMPQTGGSKYLDDDGKNKRTGSVWTASAHIITAVIGSGVLSLAWATAQLGWLAGPVVMLLFSAVTYFTSSLLAACYRSGDPISGKRNYTYMDAVRSNLGGVKVTLCGIVQYLNIFGVAIGYTIASAISMMAIKRSNCFHKSGGKDPCHMNSNPYMIAFGLVQILFSQIPDFDQLWWLSILAAVMSFTYSSAGLALGIAQVVVNGKVKGSLTGISIGAVTETQKIWRTFQALGDIAFAYSYSIILIEIQDTVKSPPSEEKTMKKATLVSVSVTTMFYMLCGCMGYAAFGDLSPGNLLTGFGFYNPYWLLDIANAAIVIHLIGAYQVYCQPLFAFIEKQASIQFPDSEFIAKDIKIPIPGFKPLRLNVFRLIWRTVFVIITTVISMLLPFFNDVVGLLGALGFWPLTVYFPVEMYIAQKKIPRWSTRWVCLQVFSLGCLVVSIAAAAGSIAGVLLDLKSYKPFRSEY",glycan array binding signal (z-score),[1],-0.644
same,glycan array binding signal (z-score),[2],-0.299
same,glycan array binding signal (z-score),[3],-0.832
same,glycan array binding signal (z-score),[4],1.9
same,glycan array binding signal (z-score),[5],-0.941
same,glycan array binding signal (z-score),[6],0.712
same,glycan array binding signal (z-score),[7],-0.416
same,glycan array binding signal (z-score),[8],0.308
same,glycan array binding signal (z-score),[9],-0.829
same,glycan array binding signal (z-score),[10],-0.631
same,glycan array binding signal (z-score),[11],-0.412
same,glycan array binding signal (z-score),[12],0.63
same,glycan array binding signal (z-score),[13],0.006
same,glycan array binding signal (z-score),[14],0.88
same,glycan array binding signal (z-score),[15],-0.552
same,glycan array binding signal (z-score),[16],-0.402
same,glycan array binding signal (z-score),[17],0.07
same,glycan array binding signal (z-score),[18],-0.619
same,glycan array binding signal (z-score),[19],-0.4
same,glycan array binding signal (z-score),[20],-0.793
same,glycan array binding signal (z-score),[21],0.022
same,glycan array binding signal (z-score),[22],0.294
same,glycan array binding signal (z-score),[23],-0.627
same,glycan array binding signal (z-score),[24],-0.719
same,glycan array binding signal (z-score),[25],0.29
same,glycan array binding signal (z-score),[26],-0.23
same,glycan array binding signal (z-score),[27],-0.639
same,glycan array binding signal (z-score),[28],2.75
same,glycan array binding signal (z-score),[29],1.05
same,glycan array binding signal (z-score),[30],-0.118
same,glycan array binding signal (z-score),[31],-0.144
same,glycan array binding signal (z-score),[32],-0.273
same,glycan array binding signal (z-score),[33],-0.548
same,glycan array binding signal (z-score),[34],-0.277
same,glycan array binding signal (z-score),[35],-0.757
same,glycan array binding signal (z-score),[36],-0.793
same,glycan array binding signal (z-score),[37],-0.935
same,glycan array binding signal (z-score),[38],1.06

# Three entries picked at random from the list so far:
binder,measurement,setting,value
"AT1G77380(17) (Arabidopsis thaliana), Q39134 (protein) MVQNHQTVLAVDMPQTGGSKYLDDDGKNKRTGSVWTASAHIITAVIGSGVLSLAWATAQLGWLAGPVVMLLFSAVTYFTSSLLAACYRSGDPISGKRNYTYMDAVRSNLGGVKVTLCGIVQYLNIFGVAIGYTIASAISMMAIKRSNCFHKSGGKDPCHMNSNPYMIAFGLVQILFSQIPDFDQLWWLSILAAVMSFTYSSAGLALGIAQVVVNGKVKGSLTGISIGAVTETQKIWRTFQALGDIAFAYSYSIILIEIQDTVKSPPSEEKTMKKATLVSVSVTTMFYMLCGCMGYAAFGDLSPGNLLTGFGFYNPYWLLDIANAAIVIHLIGAYQVYCQPLFAFIEKQASIQFPDSEFIAKDIKIPIPGFKPLRLNVFRLIWRTVFVIITTVISMLLPFFNDVVGLLGALGFWPLTVYFPVEMYIAQKKIPRWSTRWVCLQVFSLGCLVVSIAAAAGSIAGVLLDLKSYKPFRSEY",glycan array binding signal (z-score),[17],0.07
same,glycan array binding signal (z-score),[20],-0.793
same,glycan array binding signal (z-score),[21],0.022
